PubChem BioAssay AID1259308 – NCATS | 2017
The deposit covers about 59,000 reagents; this is a random part of them. Over the whole deposit, about 1,510 (2.6%) were called active. 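Calls use total luciferase alone and ignore viability, so some active siRNAs may act by altering cell number.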 Reagents against one gene are numbered here.

Assay: 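Genes whose loss raises luciferase production in HEK293 cells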 (primary screen)
System: human HEK293 embryonic kidney cells stably expressing firefly luciferase (HEK-CMV-Luc2-Hygro)
Knock-down reagent: single siRNA against human genes, 0.8 pmol siRNA per well
Timing: 72 h
Measurement: 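Luciferase light (ONE-Glo) measured on one replicate plate set and viability (CellTiter-Glo) on the other, scaled to a negative control siRNA, with robust z-scores and luciferase per cell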
Scale: total luciferase, z-score and total luciferase, % of control: higher = more reporter protein produced; luciferase per cell, z-score: higher = more reporter output per viable cell; viable cells, % of control: higher = more viable cells
Active means: 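An siRNA counts as active if its total luciferase robust z-score exceeds 3; genes with two or more such siRNAs out of three were retested with fresh siRNAs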
Calls: active = raised luciferase; inactive = no rise

no.	gene	reagent	total luciferase, z-score	total luciferase, % of control	luciferase per cell, z-score	viable cells, % of control	Outcome
1	C1orf198 (chromosome 1 open reading frame 198)	1	2.84	138	2.62	77.5	inactive
2	C1orf198 (chromosome 1 open reading frame 198)	2	0.264	87.1	0.0371	96.4	inactive
3	C1orf198 (chromosome 1 open reading frame 198)	3	-0.385	74.2	-0.399	92.1	inactive
4	COMMD5 (COMM domain containing 5)	1	-0.974	62.5	-1.31	98.5	inactive
5	COMMD5 (COMM domain containing 5)	2	0.192	85.7	-0.214	101	inactive
6	COMMD5 (COMM domain containing 5)	3	0.402	89.9	1.1	75.3	inactive
7	PITHD1 (PITH domain containing 1)	1	1.21	106	1.23	85.5	inactive
8	PITHD1 (PITH domain containing 1)	2	0.47	91.2	1.5	68.7	inactive
9	PITHD1 (PITH domain containing 1)	3	-1.05	61.1	-1.02	89.2	inactive
10	OXSR1 (oxidative stress responsive kinase 1)	1	-1.78	46.5	-1.01	67.7	inactive
11	OXSR1 (oxidative stress responsive kinase 1)	2	-0.357	74.8	-0.464	94.4	inactive
12	OXSR1 (oxidative stress responsive kinase 1)	3	-0.486	72.2	-0.742	98.1	inactive
13	OR2S2 (olfactory receptor family 2 subfamily S member 2)	1	-0.781	66.3	0.561	63.9	inactive
14	OR2S2 (olfactory receptor family 2 subfamily S member 2)	2	-0.621	69.5	0.277	72.2	inactive
15	OR2S2 (olfactory receptor family 2 subfamily S member 2)	3	0.0505	82.9	1.02	70.8	inactive
16	ARRB1 (arrestin beta 1)	1	-0.725	67.5	-0.82	93.6	inactive
17	ARRB1 (arrestin beta 1)	2	-1.06	60.7	0.648	57.2	inactive
18	ARRB1 (arrestin beta 1)	3	2.12	124	1.2	101	inactive
19	MYOZ3 (myozenin 3)	1	-0.245	77	-0.368	94.8	inactive
20	MYOZ3 (myozenin 3)	2	0.389	89.6	-0.15	104	inactive
21	MYOZ3 (myozenin 3)	3	0.276	87.4	0.0553	96.2	inactive
22	RBP5 (retinol binding protein 5)	1	0.113	84.1	0.0441	92.9	inactive
23	RBP5 (retinol binding protein 5)	2	-0.646	69	-0.646	91.5	inactive
24	RBP5 (retinol binding protein 5)	3	0.256	87	0.726	80.3	inactive
25	ZNF280A (zinc finger protein 280A)	1	-0.968	62.6	-0.931	89.4	inactive
26	ZNF280A (zinc finger protein 280A)	2	0.399	89.8	0.789	81.6	inactive
27	ZNF280A (zinc finger protein 280A)	3	-0.0946	80	-0.195	94.1	inactive
28	LINC01220 (long independently transcribed non-coding RNA 1220)	1	-0.479	72.4	0.629	68.5	inactive
29	LINC01220 (long independently transcribed non-coding RNA 1220)	2	-0.474	72.5	0.548	70.1	inactive
30	LINC01220 (long independently transcribed non-coding RNA 1220)	3	1.03	102	1.44	78.2	inactive
31	CWC27 (CWC27 spliceosome associated cyclophilin)	1	-0.147	79	-0.0429	89.2	inactive
32	CWC27 (CWC27 spliceosome associated cyclophilin)	2	-1.21	57.9	-1.32	91.6	inactive
33	CWC27 (CWC27 spliceosome associated cyclophilin)	3	2.07	123	1.81	85.4	inactive
34	NTAQ1 (N-terminal glutamine amidase 1)	1	0.681	95.4	0.756	87.4	inactive
35	NTAQ1 (N-terminal glutamine amidase 1)	2	0.115	84.2	0.13	90.9	inactive
36	NTAQ1 (N-terminal glutamine amidase 1)	3	-0.0776	80.3	0.187	85.5	inactive
37	NSUN5P2 (NSUN5 pseudogene 2)	1	-0.504	71.9	-0.521	92.1	inactive
38	NSUN5P2 (NSUN5 pseudogene 2)	2	-3.14	19.5	-4.85	78.1	inactive
39	NSUN5P2 (NSUN5 pseudogene 2)	3	0.708	96	0.192	102	inactive

Quoted from above, 3 entries:
no.	gene	reagent	total luciferase, z-score	total luciferase, % of control	luciferase per cell, z-score	viable cells, % of control	Outcome
21	MYOZ3 (myozenin 3)	3	0.276	87.4	0.0553	96.2	inactive
22	RBP5 (retinol binding protein 5)	1	0.113	84.1	0.0441	92.9	inactive
23	RBP5 (retinol binding protein 5)	2	-0.646	69	-0.646	91.5	inactive
